Values from PubChem BioAssay AID504808 (Drosophila RNAi Screening Center, 2011)

- Assay: 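Chromatin factors that keep E2F targets switched off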 (primary screen)
- Cells: Drosophila S2 cells
- Reagents: long dsRNA against Drosophila genes
- Detection: 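Firefly luciferase driven by E2F sites, normalised to Renilla luciferase on the same minimal promoter, measured by plate reader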
- Direction: E2F firefly: higher = more E2F reporter activity; Renilla normaliser: higher = more normaliser reporter signal
- Hit rule: 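Called active if the normalised E2F reporter went up by over 50%; the cutoff is arbitrary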
The screen tested about 21,000 reagents; this is an unselected part of those that have a named target and a result. Over the whole deposit, 18 (0.084%) were called active. 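Raw counts without plate normalisation, one of two replicates; the ratio scores behind the calls were not deposited.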 Names joined by + are all predicted targets of the reagent. The record does not give: the amount of reagent, the time to read-out.

no.	gene knocked down	amplicon	E2F firefly, rep 1	Renilla normaliser, rep 1	Call
1	AdamTS-B (ADAM metallopeptidase with thrombospondin type 1 motif B)	DRSC18346	1.11e5	5760	inactive
2	CG13074	DRSC09957	1.74e5	8256	inactive
3	CG14818	DRSC18548	94505	5143	inactive
4	CG10991 (retired record)	DRSC12156	1.26e5	6547	inactive
5	Mhcl (Myosin heavy chain-like)	DRSC13130	83996	2496	inactive
6	Mhcl (Myosin heavy chain-like)	DRSC14216	1.27e5	6525	inactive
7	Mhcl (Myosin heavy chain-like)	DRSC16753	1.28e5	7116	inactive
8	Gbeta5 (G protein beta subunit 5)	DRSC17754	1.21e5	5912	inactive
9	bves	DRSC20520	1.37e5	7021	inactive
10	bves	DRSC20554	1.30e5	8287	inactive
11	bves	DRSC20555	1.29e5	6989	inactive
12	CG8249	DRSC07125	1.45e5	4835	inactive
13	Osi17 (Osiris 17)	DRSC12284	1.08e5	4957	inactive
14	GABPI (beta4GalNAcTB pilot)	DRSC00494	90215	3725	inactive
15	CG11815	DRSC08209	1.06e5	4590	inactive
16	CG15617	DRSC06570	1.48e5	4788	inactive
17	Ho (Heme oxygenase)	DRSC14939	78231	3686	inactive
18	CG14086	DRSC10090	1.32e5	6952	inactive
19	CR13656 (pseudo)	DRSC13705	86223	2286	inactive
20	CR13656 (pseudo)	DRSC14656	1.10e5	6065	inactive
21	Elp6 (Elongator complex protein 6)	DRSC16571	74940	3350	inactive
22	hpRNA:CR18854 (hairpin RNA:CR18854)	DRSC02702	1.39e5	4925	inactive
23	CG4497	DRSC02754	96190	4088	inactive
24	CAH13 (Carbonic anhydrase 13)	DRSC06128	1.46e5	5522	inactive
25	CG14830	DRSC08876	1.44e5	5200	inactive
26	CG14830	DRSC10200	98240	3774	inactive
27	foi (fear-of-intimacy)	DRSC10719	81297	3722	inactive
28	Or85a (Odorant receptor 85a)	DRSC16764	1.42e5	6553	inactive
29	Sou (Souji)	DRSC04356	1.10e5	4873	inactive
30	CG15628	DRSC00256	95537	4671	inactive
31	CG15628	DRSC00463	1.36e5	4755	inactive
32	CG32772	DRSC18052	1.17e5	2372	inactive
33	CG32772	DRSC18406	7610	776	inactive
34	Tret1-1 (Trehalose transporter 1-1)	DRSC07046	88672	4146	inactive
35	Tret1-1 (Trehalose transporter 1-1)	DRSC07048	90634	4332	inactive
36	Zir (Zizimin-related)	DRSC00307	95920	3522	inactive
37	CG7606	DRSC13246	89343	2626	inactive
38	CG7606	DRSC16268	95728	4792	inactive
39	sesB (stress-sensitive B)	DRSC20371	1.27e5	5700	inactive
40	tn (thin)	DRSC05768	1.63e5	7510	inactive
41	tn (thin)	DRSC06532	84926	4011	inactive
42	Pfdn2 (Prefoldin 2)	DRSC10618	85322	4802	inactive
43	pths (porthos)	DRSC03171	86783	3949	inactive
44	SdhC (Succinate dehydrogenase, subunit C)	DRSC16088	1.40e5	6533	inactive
45	GstE5 (Glutathione S transferase E5)	DRSC06675	1.50e5	5138	inactive
46	CG13022	DRSC09902	1.70e5	7384	inactive
47	Ccz1 (Caffeine, calcium, zinc sensitivity 1)	DRSC08439	1.06e5	4295	inactive
48	e (ebony)	DRSC16936	67981	3557	inactive
49	Gabat (gamma-aminobutyric acid transaminase)	DRSC10846	1.31e5	7207	inactive
50	CG33557	DRSC17854	1.25e5	6086	inactive
51	CG33159	DRSC08199	61194	3171	inactive
52	CG32706 + CG6999	DRSC18412	59703	4907	inactive
53	CG1637	DRSC18865	82219	2449	inactive
54	CG1637	DRSC19748	8204	708	inactive
55	CG1637	DRSC19749	1.29e5	5896	inactive
56	CG6362	DRSC07413	1.35e5	4866	inactive
57	Jhbp7 (Juvenile hormone binding protein 7)	DRSC14408	1.14e5	5730	inactive
